# Data as given in PubChem BioAssay AID720505 (Drosophila RNAi Screening Center, 2013)
# Aim: 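Knock-downs that reduce calcium influx once internal stores are emptied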 (primary screen)
# System: Drosophila S2R+ cells
# Reagents: long dsRNA against Drosophila genes
# Treatment: thapsigargin (2 µM) in calcium-free buffer to empty internal stores, then 2 mM calcium added back
# Measurement: 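Fluo-4 signal in 384-well plates read on a FLIPR after thapsigargin (2 µM, calcium-free) store depletion and 2 mM calcium add-back; unnormalised mean endpoint per well; screen run twice, selected wells retested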
# Direction: calcium signal and retest calcium signal: higher = more calcium entry after store depletion
# Hit rule: 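About 1500 genes called as lowering calcium entry, by varying amounts, judged against per-plate control wells with STIM1 as positive and Rho1 as negative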
# Calls: active = called as lowering calcium entry; inactive = not called
# The screen tested about 20,000 reagents; shown is an unselected part of those that have a named target and a result. In the full data, about 2,100 (10%) were called active. 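Raw plate signals without normalisation; calls rest on control-based scores that were not deposited; replicate 2 separates called from uncalled poorly.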 Entries without a mark were called inactive. A plus sign joins genes that one reagent is predicted to hit. Not stated in the record: the amount of reagent, the time to read-out.
gene knocked down,dsRNA,"calcium signal, replicate 1","calcium signal, replicate 2","retest calcium signal, replicate 1","retest calcium signal, replicate 2"
E(Pc) (Enhancer of Polycomb),DRSC05281,83.9 (active),69.7,,
E(Pc) (Enhancer of Polycomb),DRSC07408,88.8,137,,
"Smyd4-1 (SET and MYND domain containing, class 4, member 1)",DRSC06785,159,99.4,,
rnh1 (ribonuclease H1),DRSC07673,84.1,122,,
Arf1 (ADP ribosylation factor 1),DRSC11606,114,95.5,,
osi (orsai),DRSC02931,131,116,116,142
tral (trailer hitch),DRSC09779,124,73,,
hd (humpty dumpty),DRSC12316,108,139,,
CG14635,DRSC17945,101,157,,
Ubi-p63E (Ubiquitin-63E),DRSC22016,85.4,182,,
mIF3 (mitochondrial translation initiation factor 3),DRSC06290,141,164,,
CG9380,DRSC04549,102,145,,
CG43132 (retired record),DRSC19484,90.9,165,,
CG18048,DRSC12573,123,122,,
mRpL22 (mitochondrial ribosomal protein L22),DRSC19915,152,142,,
CG8420,DRSC16418,76 (active),146,,
CG8860,DRSC07291,117,107,,
Ahcy (Adenosylhomocysteinase),DRSC19329,141,92.5,,
CG6665,DRSC07006,116,87.5,,
CG15461,DRSC20532,113,87.1,,
pad (poils au dos),DRSC14227,98.1,160,,
CG6574,DRSC16070,178,89.5,,
CG7084,DRSC16194,173,187,,
brn (brainiac),DRSC18746,105,110,,
Hydr1 (alpha/beta hydrolase 1),DRSC07063,73.4,131,,
Polr2B (RNA polymerase II subunit B),DRSC16831,60 (active),91.8,,
CG1628,DRSC18109,132,113,,
Nipsnap,DRSC20169,133,135,,
Nfs1 (Nfs1 cysteine desulfurase),DRSC02154,100,96.1,,
CG8773,DRSC16444,97.1,103,,
CG5079,DRSC15713,156,148,,
CG5079,DRSC23061,94.1,140,,
Ldaf1 (Lipid droplet assembly factor 1),DRSC17963,102,156,,
Setx (Senataxin),DRSC10859,76.4,79.6,,
CG5404,DRSC15793,93.2,108,67.7,94
CG2901,DRSC18239,101,74.5,,
ND-30 (NADH dehydrogenase (ubiquinone) 30 kDa subunit),DRSC08243,99.8,79.2,,
NELF-B,DRSC17734,133,135,,
qkr58E-3 (quaking related 58E-3),DRSC04711,240,89.5,,
AcCoAS (Acetyl Coenzyme A synthase),DRSC11477,8458,136,,
AcCoAS (Acetyl Coenzyme A synthase),DRSC11603,49 (active),99.1,,
AcCoAS (Acetyl Coenzyme A synthase),DRSC22850,81.9,103,,
rasp,DRSC08191,104,128,,
CG18132,DRSC00518,184,142,,
l(2)k14505 (lethal (2) k14505),DRSC03106,156,108,,
CG15152,DRSC02453,103,95,,
CG12164,DRSC06115,158,86,,
CG12164,DRSC21777,134,92.6,,
kz (kurz),DRSC18786,105,115,,
CkIalpha (Casein kinase Ialpha),DRSC20231,81.3,96.9,,
CkIalpha (Casein kinase Ialpha),DRSC22609,117,164,,
CkIalpha (Casein kinase Ialpha),DRSC23308,78,117,,
bsf (bicoid stability factor),DRSC02035,85.7,117,,
Or19b + Or19a,DRSC22604,112,187,,
alpha-Est1 (alpha-Esterase-1),DRSC12612,92.7,115,,
rau,DRSC03125,122,158,,
Mink (Mitotic spindle and nuclear protein),DRSC14291,199,317,,
CG11899,DRSC16656,109,91,,
Cpr64Ac (Cuticular protein 64Ac),DRSC08462,121,140,,
foi (fear-of-intimacy),DRSC10719,102,63.2,,
AANATL6 (Arylalkylamine N-acetyltransferase-like 6),DRSC06773,214,110,,
Obp56e (Odorant-binding protein 56e),DRSC07188,189,176,,
KFase (Kynurenine formamidase),DRSC03258,110,99.5,,
spirit (Serine Protease Immune Response Integrator),DRSC18202,124,94.6,,
Set1 (SET domain containing 1),DRSC20930,58 (active),183,,
Set1 (SET domain containing 1),DRSC20931,71 (active),204,,
FASN3 (Fatty acid synthase 3),DRSC20882,136,80,,
Boot (Bootlegger),DRSC06412,100,132,,
Pex12 (Peroxin 12),DRSC00622,118,106,,
CG13359,DRSC18539,96.9,130,,
LysB (Lysozyme B),DRSC08673,65,120,,
Gfat2 (Glutamine:fructose-6-phosphate aminotransferase 2),DRSC14598,90.5,121,,
CG13000,DRSC19519,94.9,130,,
Acp53C14b (Accessory gland protein 53C14b),DRSC06569,165,153,,
CG9801,DRSC16568,112,117,,
CG34051,DRSC01739,79.1,5154,5281,110
CG5084,DRSC06913,155,102,,
CG31087,DRSC14253,218,131,,
CG8664,DRSC20116,71 (active),103,,
maca,DRSC15738,121,144,,
tara (taranis),DRSC17076,150,191,,
tara (taranis),DRSC23014,162,142,,
Ocrl (Oculocerebrorenal syndrome of Lowe),DRSC18576,73.6,118,,
CG12091,DRSC08251,92.9,69.5,,
ndl (nudel),DRSC11374,83.9,78.5,,
Vps60 (Vacuolar protein sorting 60),DRSC10610,104,201,,
kuz (kuzbanian),DRSC03555,91.5,150,,
lap (like-AP180),DRSC12628,103,155,,
CG14717,DRSC14940,142,115,,
rictor (rapamycin-insensitive companion of Tor),DRSC20071,60.2 (active),128,,
CG15330,DRSC18014,149,119,,
CG5909,DRSC15914,150,171,,
acs (arcus),DRSC08185,64.7,114,,
RluA-1 (RluA pseudouridine synthase 1),DRSC02240,211,131,,
RluA-1 (RluA pseudouridine synthase 1),DRSC03060,147,120,,
Ir93a (Ionotropic receptor 93a),DRSC15212,187,319,,
Ir93a (Ionotropic receptor 93a),DRSC15213,198,122,,
Acox57D-p (acyl-Coenzyme A oxidase at 57D proximal),DRSC04560,149,86.6,,
ste24a (prenyl protease type I),DRSC07314,120,93.2,,
Sirup (Starvation-upregulated protein),DRSC03031,101,157,,
fz3 (frizzled 3),DRSC18779,72.4,99.6,,
CheB42a (Chemosensory protein B 42a),DRSC22881,129,144,,
CG3594,DRSC04393,66.6 (active),176,,
CG3594,DRSC21959,64.1,195,,
Pvf3 (PDGF- and VEGF-related factor 3),DRSC02284,160,84.6,,
Pvf3 (PDGF- and VEGF-related factor 3),DRSC02285,152,94.4,,
Pvf3 (PDGF- and VEGF-related factor 3),DRSC02286,159,83.3,,
Pvf3 (PDGF- and VEGF-related factor 3),DRSC02751,134,82,,

Hits (from the list above):
gene knocked down,dsRNA,"calcium signal, replicate 1","calcium signal, replicate 2","retest calcium signal, replicate 1","retest calcium signal, replicate 2"
E(Pc) (Enhancer of Polycomb),DRSC05281,83.9 (active),69.7,,
CG8420,DRSC16418,76 (active),146,,
Polr2B (RNA polymerase II subunit B),DRSC16831,60 (active),91.8,,
AcCoAS (Acetyl Coenzyme A synthase),DRSC11603,49 (active),99.1,,
Set1 (SET domain containing 1),DRSC20930,58 (active),183,,
Set1 (SET domain containing 1),DRSC20931,71 (active),204,,
CG8664,DRSC20116,71 (active),103,,
rictor (rapamycin-insensitive companion of Tor),DRSC20071,60.2 (active),128,,
CG3594,DRSC04393,66.6 (active),176,,
